About 3,700 (7%) of roughly 53,000 sequences were called active.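 Rule for the calls: active = gene knockdowns whose robust z-score for IL-1 alpha signal is at least 2 or at most -2, so actives lie on both sides; inactive = the rest.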 Some of the results follow.

The nature of this experiment: Components of the Cytosolic LPS Sensing Pathway: Gene Identification via Genome-wide siRNA Screen.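 Note: robust z of the log signal after scaling to non-targeting control siRNA wells of the plate.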 The note with it: RAW264.7 macrophages, IL-1a HTRF, actives lie on both sides, screened at 100 nM (by protocol), cells primed 5 h with Pam3CSK4 first. The essentials:
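Read-out: IL-1a HTRF on supernatant, divided by plate negative-control median ×100, log-transformed and converted to robust z-score. Cells were RAW264.7 given 100 nM siRNA, Pam3CSK4-primed 5 hours, then LipidA-transfected 24 hour.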
For CCACCCUGAUUUAAGAAGGTT against Ndufs3, the z-score was active: 2.53.

Consider CCUCAUAACAACGACUCCUTT against Cxcr5, for which the z-score is inactive: -0.687.

On to GGAAGGUCAGAACAACGACTT against Tpcn1, for which the z-score is inactive: -0.92.

Turning to GGAGACAUCCUAAAAUUUGTT against Adcy10, the z-score is inactive: -0.777.

Turning to “GGAAACUUCUGCACUUGGGTT against 4930474M22Rik”, the z-score was inactive: 0.558.

Consider CCGGUGGUAAUUUCACCCUTT against C2, for which the z-score was inactive: -1.01.

As to GGCCCAUCUAAGCUACAGATT against Rab40b, the z-score is inactive: -1.07.

As to CCAUCAAAGUCAUCGACGGTT against Birc6, the z-score was inactive: -0.427.

As for GGAACUGUAUGAAAUGCUGTT against Pdgfb, the z-score is inactive: 0.0794.

In the case of CGUGGAGUGUUAAAGAAUUTT against Il23r, the z-score was inactive: 0.373.

Take GCUGAUUGAGCAUCCGAUGTT against Ggt1: the z-score is active: 2.78.

Turning to GCUUAUGAUUCCAAGGCAGTT against Serpina6, the z-score was inactive: 0.9.

With GCAAUGGACCUGGUACAAGTT against Myg1, the z-score was inactive: -0.922.

As for GGUCACAACUUUUGAGCACTT against Gna11, the z-score is inactive: -0.336.

With GGUGGAACACAAUGGAUGCTT against Vwc2l, the z-score was inactive: -0.246.

With GGUUCGCCCUUGGAAAUGGTT against Dmap1, the z-score was inactive: -0.258.

For the sequence GCAGAACUCUGGAAUCAAGTT against Pgap3, the z-score was inactive: 0.401.

For the sequence GGGCACGGUAUUCCAUUUCTT against Utp4, the z-score was inactive: -0.563.

On to GGGUGUGAUCCAAGCUAUCTT against Rtn4, for which the z-score was inactive: 1.61.

For the sequence GGUGGGAAAAAACAUAAGGTT against Fam149a, the z-score was inactive: 0.462.

Consider GCUGUUAUAACCUUGUUACTT against Rspry1, for which the z-score is inactive: 1.19.

GGAAGCAUCCUUUGAUGAGTT against Afm: the z-score was inactive: -1.1.

As to GGAGAACAGACACAGGGUGTT against Dlgap5, the z-score was inactive: -0.284.

As to GCGGACAGGCACAGAAAAATT against Usp3, the z-score is inactive: -0.75.

On to GCAAGGAAAAUCUAUACCGTT against Rgs2, for which the z-score is inactive: -0.954.

As to GCUGUCUUUGAACUAUAUATT against Cd200r4, the z-score is inactive: -0.439.

For GCUUCAGAACAAGUCCCUGTT against Castor1, the z-score was inactive: -0.252.

For the sequence “CCGAAAUCCUACAUAUAUGTT against B430209F14Rik”, the z-score is inactive: -0.306.

Turning to GGUAGCUAUCAAGGUCAUCTT against Hunk, the z-score is inactive: -0.187.

In the case of CGCAGAAGUGCGUGAUUUCTT against Gsdme, the z-score was inactive: 1.73.

As for GGCCACCUUCUUUGAGGUATT against Snai1, the z-score is inactive: 1.11.

Turning to GGAAAGAGAACAUAAAAGATT against Pla2g4a, the z-score was inactive: -0.995.

As to CCUUGUAUUCCCAUCAUGCTT against AI467606, the z-score was inactive: -0.111.

On to CCACUAUUAAACUUCUCAATT against Pex3, for which the z-score is inactive: 0.32.

As for GAACUGGAGAUCUUCGAACTT against Ltc4s, the z-score was inactive: 0.532.

Take GCUUUACGUUCAAGUUUAGTT against Ranbp2: the z-score was inactive: -0.382.

Regarding GGUGACUGACAUGAUGAUATT against Pard6b, the z-score was inactive: -0.449.

Turning to GCUAUUUUCAGCGAGCUGUTT against Lmo3, the z-score was inactive: -0.874.

Regarding GGCAUUGAUUGAUUCCUGUTT against Dnpep, the z-score is inactive: 0.897.

Consider GGUAAGGACUAUUUGAAUUTT against Lpar1, for which the z-score was inactive: -0.429.

In the case of CGAAAGCAUUGCCUACUUUTT against Anks3, the z-score is inactive: 0.843.

For the sequence CCAAUAAGAAUUCAGAUCGTT against Ufd1, the z-score was inactive: -0.15.

As to CGUGAAUUAUGGAAAUUAGTT against P2ry10b, the z-score is inactive: 0.178.

Regarding GGCCAGUGGGAAGUGAAGATT against Sec13, the z-score is inactive: 0.124.

With GGGAAGUCACUUUUGUUCCTT against Top2a, the z-score is inactive: 0.244.

For GGGAAAUGUUGUAGUAGAUTT against Rars2, the z-score was inactive: 0.535.

Consider GGAUUCAUCAUCUACCCGGTT against C1ql4, for which the z-score was inactive: -1.08.

As for GGCGGUACCUCUUCUUCAUTT against Aipl1, the z-score was active: 2.32.

Turning to GGCUAAAACUACAAAGAAGTT against Rpl36a, the z-score was inactive: -1.1.

Turning to GCUGAAAUCCAGGAUAGAGTT against Zw10, the z-score is active: -2.03.

As to GGAGUUCAUCCUCACAGAUTT against Vdr, the z-score was inactive: -0.524.

Turning to GCACCGUUGAAGUCAAGGUTT against Tdrd6, the z-score was inactive: -1.58.

For the sequence CCAUUACAUCCAUUUGAUUTT against Cfap206, the z-score was inactive: 0.328.

Turning to GGUCCUGCUUCGUUAUCAGTT against Aldh6a1, the z-score was inactive: -0.487.

For GGGAGGACACUAUUUGAUUTT against Slco2b1, the z-score is inactive: -0.888.

With GGAGUACGAGAAGAGCUCUTT against Kcnq2, the z-score was inactive: -1.05.

For GGAGCAACACUUGCGUACUTT against Ccnq, the z-score was inactive: 1.32.

In the case of CCCUGAAUAAGGCUGAUCUTT against Krt32, the z-score was inactive: -0.801.

With GGGAUUGGUUAUUUUACAUTT against Trmt12, the z-score was inactive: -0.578.

In the case of GGAAUUAAGAAGACAAUUCTT against Emc2, the z-score was inactive: -1.22.

GGCCAAGAGGAUCAUGUCATT against Iqcd: the z-score was inactive: -0.908.

For “GGCCAUGAAAUGAAUUUCUTT against 2410141K09Rik”, the z-score is inactive: 0.711.

Regarding GCACUGUGGUCCAUACUACTT against Olfr1002, the z-score was inactive: 0.844.

Consider UCGCGUCCGCUAGAAUGUUTT against Rragb, for which the z-score is inactive: -1.61.

Consider GGGUAGUUUUAAUUAAGCCTT against Lims1, for which the z-score was inactive: 1.08.

Regarding GCUCAUGAAACUUUUGAACTT against Sik1, the z-score was inactive: -0.279.

Consider GGAGGAUGAGGAUUUUGAUTT against Spsb3, for which the z-score is active: 2.16.

For CCUCUUAUCUCGAACAUUATT against Dsn1, the z-score was inactive: 0.95.

With CCAGAACGCGGAGCAAAUUTT against Sec63, the z-score is active: 2.13.

In the case of CCACUUCCAUAGAGAUUUUTT against Tmx3, the z-score is active: 2.93.

In the case of GCUGAAAACUAUGAUGGCCTT against Nfkbib, the z-score was inactive: 0.564.

As for AACCUAACCAUUAUCCUCCTT against Olfr803, the z-score is inactive: 0.074.

GGAGUGGGAAUCUUUGAAATT against Cenpp: the z-score was inactive: -0.689.

Take CAUUUCGCCCUGGAUAGUGTT against Olfr523: the z-score was inactive: -0.408.

Regarding GGGAAAGAGAUACAAUGACTT against Prl2b1, the z-score is inactive: 0.497.

GCUUACUACCAUUGGGAAUTT against Samt2: the z-score was inactive: 1.65.

As for GGCUUGGAUUUUGAAAUACTT against Srcin1, the z-score is inactive: -0.792.

Take GAAAUAUUUCUCAUCCUUGTT against Upk1b: the z-score was inactive: 0.162.

On to GGCAACCAGAUAUUUGUUATT against Myef2, for which the z-score was inactive: 0.549.

Turning to GGAUGCUUUACCAAUGGUUTT against Mbtps2, the z-score is inactive: -0.374.

As for GCCCGAUUAAAAUAAAUUGTT against Arih2, the z-score is inactive: 0.636.

For CCUGUGAGGCCAUUGAUUCTT against Acsbg1, the z-score is inactive: -1.33.

On to GGAGUUUGUGUUCCUGACGTT against Chst10, for which the z-score is inactive: -0.000128.

Turning to GCAAAUUGUAUUAUAGAGCTT against Foxo1, the z-score was inactive: -0.0105.

In the case of CCAGCUAAUUACUCAGCCUTT against Lyzl4, the z-score is inactive: 0.883.

Consider GGUUCUAUGUUGACAAUCATT against Osgin2, for which the z-score was inactive: 0.621.

As for GCAAGGACUCUCAUGGUUGTT against Zfand1, the z-score is inactive: -0.0357.

Take GGUUACCUGUGCUAGAAAATT against Zswim5: the z-score was inactive: -0.519.

For GACACUACUCACAUCAGAUTT against Hes3, the z-score is inactive: 0.777.

For GGGCAAUUUGGAGCUUACCTT against Erbb2, the z-score was inactive: -0.952.

In the case of GCUCCAAGUCAAGGAAAAUTT against Traf3ip3, the z-score was inactive: 0.145.

Take GGCUAUGAGUGCCAUAUCCTT against Wfdc1: the z-score was inactive: 1.96.

In the case of GGUGAAGAGUUCAAACAUCTT against Atp9a, the z-score was inactive: 1.29.

Regarding GGAAUUCGCCAACUGGCUGTT against Slc14a1, the z-score is inactive: -0.135.

Consider GGAGAACACGCUCAGAAGATT against Lce1g, for which the z-score is inactive: -0.601.

For GGUGAUCAGCAUGGUGGGUTT against Pold1, the z-score is inactive: 0.208.

As for GGGAAGAGCGCAUAGAUACTT against Clca3a2, the z-score was inactive: 0.622.

On to GGUGUAACUCCUUCAUUGATT against Ripor2, for which the z-score is active: -3.12.

As for GGCAAUGGUUCAGAGGACUTT against Abhd11, the z-score is inactive: -1.23.

Turning to CCUGCUAUGUAAUAUAGAUTT against Eef2k, the z-score was inactive: 0.0542.

For GGACGAGAACAUCUUAAUCTT against Pim1, the z-score is inactive: 1.58.

With GGCAGGCAGACGAAUGUUCTT against Tbx1, the z-score is inactive: -1.09.

Take GGUCCUUAAGUCCUUUGACTT against Cdr1os: the z-score is inactive: 0.894.

Take GCGAACCAAAAUUGAGUUUTT against Sap30bp: the z-score is inactive: -0.0609.

On to GGUAUUACCACGACAGGUATT against Usp42, for which the z-score is inactive: -0.0157.

Turning to CCGCUAAACUUCCAUAACCTT against Rnf123, the z-score was inactive: 1.06.

Take GGGUAGGAUUCCAGAACAUTT against Arid2: the z-score is inactive: 0.787.
